Screening data, single-dose tests

Source: ChEMBL document CHEMBL3988442, “University of Dundee, Small-Polar-MMV Screening Library” (2021).

A: 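Whole-cell growth test on Mycobacterium tuberculosis, read after 3 days in glucose-containing 7H9 medium; the read-out is not stated. Tested at 500 µM. Direction is inferred from retests: higher values go with more growth inhibition. Size under these conditions: about 18,000 compounds, about 1,400 of them at 50% or above in at least one test.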
B: 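Phenotypic screen: M. tuberculosis growth, cholesterol and DPPC medium, 4 days; the read-out is not stated. Tested at 500 µM. Higher reads as more growth inhibition (inferred: compounds with an IC50 in retests scored well above the rest). Size under these conditions: about 18,000 compounds, about 900 of them at 50% or above in at least one test.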

Each number is a percent effect as filed.
The record does not define 0% and 100%; most values in the screen are far below 50% and negative numbers occur (in some assays of this library far below -100).
This is an unselected part of the compounds tested.

Compound | A | B
O=C(COc1ncccn1)Nc1ccc(F)cc1F | 24.82% | 81.44%
COCC(Nc1nc(C(C)C)ns1)C(N)=O (stereo not given) | -5.468% | -6.163%
CN(C)C(=O)CN1CCCC1c1ccc(F)cc1 (stereo not given) | 66.6% | 56.26%
NCC(C(=O)N1CCOCC1)c1ccccc1 (stereo not given) | -8.992% | -6.43%
CCn1cc(N)ccc1=O | -118.3% | -146.4%
CNC(=O)C(NC(=O)C1CCC1)c1ccccc1 (stereo not given) | 8.516% | 7.629%
COc1ccccc1OCC(C)N (stereo not given) | 6.391% | -9.596%
COc1cc(Cl)ccc1CN | 63.88% | 48.36%
Cc1c[nH]c(CN(C)CCC(=O)Nc2cccnc2)n1 | 9.586% | -8.352%
COC(=O)[C@@H]1C[C@@H](O)CN1CCc1ccccn1 | 10.85% | 3.406%
COC(=O)N1CCC(NC(=O)NCC2CCCO2)CC1 (stereo not given) | 7.707% | 5.235%
CCOCCC(=O)N1CCC2(CCNCC2CO)CC1 (stereo not given) | -0.9741% | -5.889%
CC(=O)c1c[nH]c(C(=O)NCc2cnn(C)c2C)c1 | -8.168% | -26.4%
O=C(NCCn1cccn1)c1cc2sccc2[nH]1 | 14.68% | 0.3681%
CCN(Cc1ccc2c(c1)OCCO2)[C@H]1COC[C@@H]1O | 11.03% | 14.31%
CN1CCN(CCS(=O)(=O)c2ccc(Cl)cc2)CC1 | 13.11% | 0.7216%
NCCOc1cccc(C(F)(F)F)n1 | 34.89% | 7.949%
O=C(CSc1ccccc1)NCCCN1CCOCC1 | -5.859% | -6.193%
O=C(NCC(O)C1CCCCC1)[C@@H](O)c1ccccc1 (stereo not given in full) | 53.96% | 45.71%
CSc1ccc(CNC(=O)C(C)O)cc1 (stereo not given) | 0.6693% | 3.924%
C[C@H](NCc1cccc(-n2cccn2)c1)C(N)=O | 14.35% | -9.71%
NC(=O)C(c1ccccc1)N1CCCC1 (stereo not given) | -0.9581% | -3.418%
CN(C)[C@@H]1CN(C(=O)c2ncccn2)C[C@H]1CO | -6.166% | -13.83%
CCn1nccc1[C@@H]1OCCC[C@H]1CN | 8.444% | 14.39%
NCCCS(=O)(=O)c1ccc(Cl)cc1 | 14.82% | 10.69%
CC(=O)CCCc1cccnc1 | 27.7% | 4.402%
CN(C)c1ccc(C(=O)Nc2ccncc2)cc1 | -1.43% | -0.3988%
CN(CCOCc1ccccc1)C(=O)c1cnc[nH]1 | 15.79% | -10.84%
CC(C)N(CCCNC(=O)c1cnccn1)S(C)(=O)=O | 23.97% | -0.05398%
CN(CCCOc1cccc(Cl)c1)CC(N)=O | 21% | 42.48%
CC1(C(=O)NCCOCc2ccccc2)CCCCN1 (stereo not given) | -0.05491% | -2.891%
COc1ccc(CCS(C)(=O)=O)cc1 | 16.4% | 13.97%
Cc1nnc(CN2CCCSCC2)o1 | 28.81% | 18.7%
COCC(=O)N(C)c1ccccc1 | -6.743% | -6.933%
CN(C(=O)C(C)(C)c1ccccc1)C1CCS(=O)(=O)C1 (stereo not given) | 13.79% | -14.91%
CCC1CN(C(=O)c2cnc(C)cn2)CCO1 (stereo not given) | 12.74% | 5.942%
OCc1ccccc1CC1CCNCC1 | 17.22% | 15.89%
NC(c1ccccc1)C1(CO)CC=CC1 (stereo not given) | 8.997% | -1.217%
CCNCCOc1ccccc1OC | -0.9698% | -3.281%
O=C(Cc1cn2ccsc2n1)NCC1CCC1 | 82.37% | 74.9%
COc1cccc(-n2cc(N)nn2)c1 | 7.086% | 31.18%
CC(C)NC(=O)COC(=O)C1=NN(C)C(=O)CC1 | 6.556% | 11.21%
O=C(NCC1CCS(=O)(=O)CC1)c1cc2sccc2[nH]1 | 15.26% | -10.31%
CC(C)N1CCCC(N(C)CC(C)(CO)CO)C1=O (stereo not given) | -6.404% | -3.257%
COCCN(Cc1ccc(C)s1)CC1(O)CCNC1 (stereo not given) | 1.797% | -3.881%
N#Cc1cccc(CN2CCC3(CC2)[C@H](O)C[C@@H]3O)c1 | 1.911% | 3.385%
Cn1cc(CNC(=O)c2ccco2)cn1 | 15.5% | 13.72%
O=C(NCCO)c1ccc(OCc2cccs2)cc1 | 69.59% | 58.83%
CN(C)c1nc(CS(=O)(=O)c2cccc(F)c2)ns1 | 4.645% | 1.46%
COC(=O)CCNS(=O)(=O)c1ccc(OC)cc1 | 51.7% | 22.4%
COc1ccc(-c2nc(CN)cs2)cc1 | 29.1% | 43.24%
O=C(NCCCN1CCCCC1)c1ccccc1 | 0.326% | 6.722%
CN(CCn1cccn1)CC(=O)Nc1ccc(Br)cn1 | 45.99% | 32%
Cc1[nH]c(=O)[nH]c(=O)c1CCC(=O)Nc1ccn(C)n1 | -7.893% | -30.64%
CC(=O)N1CCC(NCc2ccc3c(c2)OCO3)CC1 | 10.8% | 2.082%
COc1cccc(OC)c1CN | 34.29% | -0.6418%
COC1CCCNC1 (stereo not given) | -6.265% | 7.103%
CC(C)c1nc(C(=O)NCCN2CCCOC2=O)cs1 | 30.89% | -9.369%
NCc1noc2c1CCCC2 | 17.14% | 79.5%
COc1ccnc(NC(=O)NCc2cccs2)c1 | 67.39% | 60.95%
NCCCC(=O)N(Cc1cccc(F)c1)C1CC1 | 37.53% | -0.004762%
CNC(=O)c1ccc(OCc2nc(C)no2)cc1 | 35.05% | 21.89%
COCC(=O)N1CCC(Nc2cncc(Br)c2)CC1 | -8.039% | -3.434%
COC(CN)C1CCCC1 (stereo not given) | -2.901% | -17.46%
CC(=O)NC(C(=O)N1CCSCC1)C(C)C (stereo not given) | 10.89% | 5.176%
Cc1cccc(CN2CCC(N)CC2)c1 | -9.107% | -17.04%
COCCNC(=O)C(C)Cn1cc(Br)cn1 (stereo not given) | 49.14% | 43.17%
NCc1ccc(N2CCCCC2=O)cc1 | -26.3% | -9.326%
CCc1nc(C)c(C(=O)NCc2cn3c(n2)SCC3)o1 | 8.538% | 0.2681%
CCCNC(=O)c1onc(C)c1Cl | 15.43% | 5.413%
COC(=O)c1ccc2[nH]c(CN)nc2c1 | 15.53% | -11.89%
CCCn1ncnc1-c1ccc(C(N)=O)c(Cl)c1 | -4.842% | -8.419%
CCS(=O)(=O)NCC(=O)NCc1cc(C)c(F)c(C)c1 | -0.1431% | -7.245%
c1c[nH]c(CN2CCC3(CCOCC3)CC2)n1 | -2.503% | 4.907%
NCCN1CCN(c2ncccn2)CC1 | 12.85% | -0.1665%
O=C(NC1CC1)c1ccc(S(=O)(=O)N2CCCC2)cc1 | 23.36% | 0.7878%
c1cc2nnnn2nc1NC1CCN(C2CC2)CC1 | -3.509% | -6.8%
C[C@]1(O)CCN(Cc2cc3ccccc3o2)C[C@@H]1O | 9.906% | -2.289%
Cn1ncc(N2CCCC2)c(Br)c1=O | -1.627% | 8.41%
Brc1cccnc1N1CCN(CC2CCOC2)CC1 (stereo not given) | 0.4325% | -16.93%

For reference, 8 entries once more:

Compound,A,B
CCNCCOc1ccccc1OC,-0.9698%,-3.281%
NCCN1CCN(c2ncccn2)CC1,12.85%,-0.1665%
Brc1cccnc1N1CCN(CC2CCOC2)CC1 (stereo not given),0.4325%,-16.93%
CCn1nccc1[C@@H]1OCCC[C@H]1CN,8.444%,14.39%
CC(C)c1nc(C(=O)NCCN2CCCOC2=O)cs1,30.89%,-9.369%
COCC(Nc1nc(C(C)C)ns1)C(N)=O (stereo not given),-5.468%,-6.163%
OCc1ccccc1CC1CCNCC1,17.22%,15.89%
CNC(=O)c1ccc(OCc2nc(C)no2)cc1,35.05%,21.89%